These results are taken from patent publication US20120231141A1, “BITTERNESS-IMPROVING AGENT FOR BITTER FOOD AND DRINK AND ASTRINGENCY-IMPROVING AGENT FOR ASTRINGENT FOOD AND DRINK” (priority 2009, published 2012).

Common to all, as to assay type: in vivo
Series [1] can be described thus: Bitterness evaluation of green tea drink (flavor comparison by 10 panelists). How it is done:
Five thousand grams of hot water (containing 0.03% of sodium ascorbate) of 60° C. was added to 100 g of Chinese green tea (second picking tea) produced by Josei (heat treatment by steaming), followed by extraction for 5 min while sometimes stirring. Subsequently, solid-liquid separation with flannel filter was performed to obtain 4500 g of an extract (Bx 0.6°). To the extract, 0.04 g of tannase (Kikkoman Corporation: 5000 U/g) was added. The resulting mixture was left to stand at 40° C. for 1 hour to decompose the gallate-type catechin to non-gallate-type catechin (gallate-type catechin has strong astringency, and non-gallate-type catechin has strong bitterness), followed by heating at 90° C. for 1 min to inactivate the enzyme. After cooling to 20° C., the extract was adjusted to Bx 0.5° with deionized water to obtain green tea extract having strong bitterness. Sedanolide was added as a taste-improving agent (masking agent for bitterness) of the present invention to the resulting extract at the concentrations shown in the following Table 3 to obtain green tea drinks.

Series [2] can be described thus: Bitterness evaluation of grapefruit juice (flavor comparison by 10 panelists). How it is done: 3-n-Butylphthalide was added as a bitterness-improving agent (masking agent for bitterness) of the present invention to commercially available grapefruit juice at the concentrations shown in the following Table 2 to obtain grapefruit juice.
A short description of series [3]: Bitterness evaluation of carbonated water (flavor comparison by 10 panelists). On the procedure:
Sedanenolide was added as a bitterness-improving agent (masking agent for bitterness) of the present invention to sufficiently deaerated pure water at the concentrations shown in the following Table 4, and then carbon dioxide gas was sealed in each bottle at a pressure of 294 KPa to obtain carbonated water of the present invention.

Series [4] in a line: Astringency evaluation of green tea drink (flavor comparison by 10 panelists). On the procedure:
Five thousand grams of hot water (containing 0.03% of sodium ascorbate) of 95° C. was added to 100 g of domestic green tea (second picking tea), followed by extraction for 5 min while sometimes stirring. Subsequently, solid-liquid separation with flannel filter was performed to obtain 4500 g of an extract (Bx 0.7°). This extract was adjusted to Bx 0.5° with deionized water to obtain green tea extract having strong astringency. Sedanenolide was added as a taste-improving agent (masking agent for astringency) of the present invention to the resulting extract at the concentrations shown in the following Table 4 to obtain green tea drinks.

On to `CCCCC1OC(=O)C2=CCCCC21` (centres unmarked) [sedanolide], for which the Note result in series [1] (sedanolide 10 ppm in green tea drink having strong bitterness, 10 panelists) was “slight spicy aroma”. The aroma sensed entry in series [1] (sedanolide 10 ppm, green tea drink) is given as “a slight spicy aroma other than bitterness was also sensed”.

On to `CCCCC1OC(=O)c2ccccc21` (centres unmarked) [3-n-butylphthalide], for which the Note result in series [2] (3-n-butylphthalide 10 ppm in grapefruit juice, 10 panelists) is “slight spicy aroma”. Besides, the aroma sensed result in series [2] (3-n-butylphthalide 10 ppm, grapefruit juice) is recorded as “a slight spicy aroma other than bitterness was also sensed”.

In the case of `CCCC[C@@H]1OC(=O)C2=C1CCC=C2` [sedanenolide], the Note result in series [3] (sedanenolide 10 ppm in carbonated water, 10 panelists) is given as “slight spicy aroma”; in series [4] (sedanenolide 10 ppm in green tea drink having strong astringency, 10 panelists) it was “slight spicy aroma”. For the same molecule, the aroma sensed result is “a slight spicy aroma other than bitterness was also sensed” in series [3] (sedanenolide 10 ppm, carbonated water) and “a slight spicy aroma other than bitterness was also sensed” in series [4] (sedanenolide 10 ppm, green tea drink).
